Results taken from patent US20240252583A1, “Compositions and Methods for Treating Persistent Postsurgical Pain” (priority 2021, published 2024).

System: post-incisional mechanical allodynia
Conditions: rat, in vivo
Excerpt: Data are expressed as mean±standard error of the mean (S.E.M.), and p<0.05 was accepted as statistically significant.

CN1CC[C@]23c4c5ccc(O)c4O[C@H]2[C@@H](O)C=C[C@H]3[C@H]1C5 [morphine]
EC50 of morphine: 3.19 mg/kg
